# Data as given in patent US10543171B2, “Dermal drug delivery using amphiphilic dendron-coil micelles” (THE BOARD OF TRUSTEES OF THE UNIVERSITY OF ILLINOIS, priority 2013, dated 2020).
# For at least one compound, name, drawing or mass did not settle the structure.
# Tested on: MCF-7 cells
# Test: in vitro anti-proliferation assay (MTS) against MCF-7
# Format: cell-based, human
# Settings: ER-positive; with E2; EDX 0-1000 nM
structure (smiles),measurement,value
"CC/C(=C(\c1ccc(O)cc1)c1ccc(OCCNC)cc1)c1ccccc1 [EDX, 4-hydroxy-N-desmethyl tamoxifen]",anti-proliferative effect against MCF-7 cells,concentration-dependent growth inhibition
